Results are given in words; binding and its absence hold for the method and conditions named. Binding seen in cells or lysates may run through a third protein. Some binding calls cover weakened binding; strength is not graded here. Sequences can lack the tags named with a protein.
Molecular target: Fat intracellular domain, 3xFLAG-tagged (pAc-ftICD-3xFLAG) (Drosophila melanogaster) (UniProt P33450)
Assay: co-IP

Protein sequences, listed by entry. Tags and fused reporters are not part of them. Residues count along the entry.
UniProt P33450, residues 4610-5147: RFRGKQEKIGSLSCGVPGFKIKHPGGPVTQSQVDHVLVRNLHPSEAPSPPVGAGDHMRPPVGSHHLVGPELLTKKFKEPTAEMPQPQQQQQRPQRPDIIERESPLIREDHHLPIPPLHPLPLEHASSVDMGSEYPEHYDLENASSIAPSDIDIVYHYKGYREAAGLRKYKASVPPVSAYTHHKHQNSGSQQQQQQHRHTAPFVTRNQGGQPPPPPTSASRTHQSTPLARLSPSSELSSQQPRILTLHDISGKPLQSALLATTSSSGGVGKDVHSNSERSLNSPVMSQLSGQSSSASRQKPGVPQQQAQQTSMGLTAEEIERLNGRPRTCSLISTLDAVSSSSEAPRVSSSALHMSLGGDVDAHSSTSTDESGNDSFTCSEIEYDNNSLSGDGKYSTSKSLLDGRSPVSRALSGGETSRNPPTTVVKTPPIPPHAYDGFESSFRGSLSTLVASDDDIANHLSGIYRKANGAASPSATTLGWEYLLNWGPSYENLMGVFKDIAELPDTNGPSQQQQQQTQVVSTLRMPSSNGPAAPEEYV

B1: Yorkie, HA-tagged (pAc-yki-HA) (protein, UniProt Q45VV3 1-395)
chain: MLTTMSASSNTNSLIEKEIDDEDMLSPIKSNNLVVRVNQDTDDNLQALFDSVLNPGDAKRPLQLPLRMRKLPNSFFTPPAPSHSRANSADSTYDAGSQSSINIGNKASIVQQPDGQSPIAAIPQLQIQPSPQHSRLAIHHSRARSSPASLQQNYNVRARSDAAAANNPNANPSSQQQPAGPTFPENSAQEFPSGAPASSAIDLDAMNTCMSQDIPMSMQTVHKKQRSYDVISPIQLNRQLGALPPGWEQAKTNDGQIYYLNHTTKSTQWEDPRIQYRQQQQILMAERIKQNDVLQTTKQTTTSTIANNLGPLPDGWEQAVTESGDLYFINHIDRTTSWNDPRMQSGLSVLDCPDNLVSSLQIEDNLCSNLFNDAQAIVNPPSSHKPDDLEWYKIN
binding: binds
